Reference: PubChem BioAssay AID2685 (National Center for Advancing Translational Sciences (NCATS), 2010)
About 2,100 (0.66%) of roughly 320,000 compounds were called active. This list was built around the results that the source calls inconclusive (neither active nor inactive); the mix of calls is not that of the screen. The call rests on the fitted dose curve; in most records, active means well fitted inhibition curve with a large enough effect in the signal ratio, with a control signal flat (not every such curve was filed as active); inconclusive means small, poorly fitted or top-dose-only effect, or effect the other way, or a change in a side signal; inactive means flat fitted curve, though single readings scatter; the % refers to the signal ratio. A potency beside an inconclusive call is a rough fit, not a confirmed value.

experiment: qHTS Assay for Lipid Storage Modulators in Drosophila S3 Cells; conditions: BODIPY lipid droplet fluorescence, 18-24 h, cells fed with added oleic acid; lipid storage change, negative = inhibition: at 46.1 µM (top of the series) unless noted
Outline: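 Laser-scanning cytometry quantifies lipid droplet accumulation (500–530 nm total intensity; droplet/cell object ratio) in oleic acid-fed (400 uM added) Drosophila S3 cells treated with a concentration series. 20 uM Triacsin C defined 100% inhibition.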
On the % scale 0 is the no-effect control and ±100 the full control effect; potency means the concentration at half of the fitted maximal effect.

SMILES | Potency | lipid storage change, negative = inhibition
O=C(COC(=O)COc1ccc2ccccc2c1)Nc1cc(C(F)(F)F)ccc1N1CCOCC1 | inconclusive: 0.517 µM [cytotoxic, single point] | –
CC(=O)c1cccc(Nc2cc(C)nc3ccccc23)c1 | – | inconclusive: 29.1%
COc1ccc(NC(=O)CN(C)C(=O)/C=C/c2ccc(S(=O)(=O)N3CCCCCC3)cc2)cc1 | – | inconclusive: -46.6%
COc1cccc(C2=NOC(C(=O)Nc3cccc(C(C)=O)c3)C2)c1 (stereo not given) | – | inconclusive: -94%
Cc1ccc(Nc2nnc(SCC(=O)Nc3cccc(S(=O)(=O)NC4=NCCCCC4)c3)s2)cc1 | – | inconclusive: -13.7%
Cc1cc(C)nc(-n2nc(C)c3c(C(F)(F)F)cc(=O)[nH]c32)n1 | – | inconclusive: -28.2%
C/C(=N\Nc1nccnc1Cl)c1ccc(Br)cc1 | – | inconclusive: 61%
COc1ccc2c(c1)C1NC(=S)N[C@@](C)(O2)C1C(=O)Nc1ccccc1 (stereo not given in full) | inconclusive: 8.2 µM [activator, partial curve, poor fit] | –
CS(=O)(=O)c1ccc2nc(NC(=O)Nc3cccc(Cl)c3)sc2c1 | active: 16.4 µM | –
O=C1NC2(CCCCC2)C(=O)N1CCS(=O)(=O)Oc1ccccc1 | – | inconclusive: -31.1%
C/C(=N\NC(=O)COc1cccc(C)c1)c1ccc2ccccc2c1O | inconclusive: 29.1 µM [falling, single point] | –
O=C(NS(=O)(=O)c1ccccc1)c1ccccc1 | inconclusive: 29.1 µM [cytotoxic, single point] | –
S=c1[nH]nc(COc2ccccc2)n1/N=C/c1cccs1 | – | inconclusive: -19.9%
COc1ccc(CCN(C)C(=O)N2CCOCC2)cc1OC | inconclusive: 29.1 µM [falling, single point] | –
CN(CC(=O)Nc1ccc(F)c(F)c1F)C(=O)CCCc1nc2ccccc2c(=O)[nH]1 | inconclusive: 0.326 µM [activator, full curve] | –
COc1ccc(OC)c(NC(=O)C2=C(C)Nc3ncnn3C2c2cccs2)c1 (stereo not given) | inconclusive: 1.64 µM [activator, partial curve] | –
COc1ccc(NC(=S)NCCCN2CCCC2)cc1Cl | – | inconclusive: 11.9%
COc1ccc(-c2nc3ccccc3c(=O)n2CCOc2ccc(C)cc2C)cc1 | inconclusive: 29.1 µM [falling, single point] | –
COc1ccc(NC(=O)c2sc3nc(N4CCCC4)c4c(c3c2N)CC(C)(C)OC4)c(OC)c1 | inconclusive: 16.4 µM [activator, single point] | –
COc1cc(/C=N/Nc2nc3c(c(=O)n(C)c(=O)n3C)n2Cc2ccccc2)ccc1OC(=O)c1ccco1 | inconclusive: 16.4 µM [cytotoxic, single point] | –
Cc1cc(C)c(CN2CCC(n3nccc3NC(=O)CCOc3ccccc3)CC2)cc1C | inconclusive: 14.6 µM [falling, single point] | –
CCOC(=O)C1=C(C)N(c2ccc(C)cc2)C(=O)/C1=C\c1cccs1 | – | inconclusive: 61.3%
O=C(CNS(=O)(=O)c1ccc(Br)s1)N1CCC(N2CCCCC2)CC1 | – | inconclusive: -0.775%

Given as tab-separated lines: entries from further up
SMILES	Potency	lipid storage change, negative = inhibition
COc1ccc(-c2nc3ccccc3c(=O)n2CCOc2ccc(C)cc2C)cc1	inconclusive: 29.1 µM [falling, single point]	–
COc1ccc(NC(=O)c2sc3nc(N4CCCC4)c4c(c3c2N)CC(C)(C)OC4)c(OC)c1	inconclusive: 16.4 µM [activator, single point]	–

(cont.)

SMILES | Potency | lipid storage change, negative = inhibition
CCCCN(C(=O)c1ccc2ccccc2c1)c1c(N)n(CCCC)c(=O)[nH]c1=O | – | inconclusive: 34.5%
Cc1ccc(S(=O)(=O)N(C)C)cc1NC(=O)C(C)N(C)Cc1sccc1C (stereo not given) | – | inconclusive: -10.5%
CCNC(=O)Cn1c(=O)c2c(ncn2Cc2ccccc2)n(Cc2ccccc2)c1=O | – | inconclusive: -12.9%
C=CCn1c(COc2ccc(F)cc2)nnc1SCC(=O)Nc1cccc(S(N)(=O)=O)c1 | – | inconclusive: 4.5%
O=C(/C=C/c1ccc(Cl)cc1)N1CCN(c2ccc([N+](=O)[O-])c(N3CCOCC3)c2)CC1 | – | inconclusive: -21.5%
CNC(=O)[C@H]1O[C@@H](n2cnc3c(NCc4cccc(I)c4)ncnc32)[C@H](O)[C@@H]1O | – | inconclusive: 17.3%
COc1ccc(NC(=O)CSc2nc(=O)n(CCN3CCOCC3)c3c2CCC3)c(OC)c1 | inconclusive: 29.1 µM [cytotoxic, single point] | –
COc1cccc(CN(C)C(=O)c2ccc(OCC(=O)Nc3cccc(C(F)(F)F)c3)c(OC)c2)c1 | inconclusive: 2.59 µM [falling, full curve, poor fit] | –
C=CCn1nc2ccccc2c1OCCO | inconclusive: 16.4 µM [activator, partial curve] | –
CC(=O)Nc1ccc(S(=O)(=O)NCCC(=O)OCc2ccc([N+](=O)[O-])cc2)cc1 | – | inconclusive: -74.9%
CCOc1ccsc1C(=O)NNC(=O)c1ccco1 | – | inconclusive: 13%
CCC(=O)Nc1ccc2c(c1)ncn2CCc1ccccc1 | – | inconclusive: 19.7%
O=C(c1cc(-c2ccccn2)nc2c(Cl)cccc12)N1CCN(S(=O)(=O)c2ccccc2)CC1 | – | inconclusive: 16.1%
Nc1ncnc2nc(SCCN3CCCCC3)[nH]c12 | inconclusive: 6.51 µM [cytotoxic, single point] | –
NC(CSS(=O)(=O)O)=NCCC12CC3CC(CC(O)(C3)C1)C2 | – | inconclusive: -16.6%
CCc1ccccc1NS(=O)(=O)c1c(C(=O)N2CCCCCC2)c(C)n(C)c1C | inconclusive: 11.6 µM [falling, partial curve, poor fit] | –
O=C(NCCCN1CCCC1=O)c1csc2ccccc12 | – | inconclusive: -10.9%
CCOC(=O)/C(C#N)=C/c1c(OCC)n(CC)c2ccccc12 | inconclusive: 0.731 µM [activator, single point] | –
CCC(C)Nc1nc(Cl)nc(NCCOc2ccccc2)n1 (stereo not given) | inconclusive: 0.651 µM [activator, full curve, poor fit] | –
O=C(COC(=O)c1sc2cc(Cl)ccc2c1Cl)Nc1ncc(Cl)cc1Cl | inconclusive: 6.51 µM [cytotoxic, single point] | –
CCOC(=O)C1=C(N)Oc2c(oc(CO)cc2=O)C1c1ccc(F)c(F)c1 (stereo not given) | inconclusive: 0.58 µM [falling, full curve, poor fit] | –
Cc1ccc(Nc2cnn(C34CC5CC(CC(CC(=O)O)(C5)C3)C4)c(=O)c2Cl)cc1C | – | inconclusive: -0.113%
